Data taken from PubChem BioAssay AID1439 (NMMLSC, 2008).
Screen size: about 220,000 compounds; about 770 (0.35%) were called active. The shares of active, inactive and inconclusive entries below differ from those in the screen. Cut-off read from the data, not from the text of the source: active = binding response below about 49% or above about 150%; inconclusive = no clear call, values can overlap the other calls; inactive = in between.

By UniProt entry, the sequences of proteins in these tests, tags left out.
UniProt P09471, whole entry, looked up: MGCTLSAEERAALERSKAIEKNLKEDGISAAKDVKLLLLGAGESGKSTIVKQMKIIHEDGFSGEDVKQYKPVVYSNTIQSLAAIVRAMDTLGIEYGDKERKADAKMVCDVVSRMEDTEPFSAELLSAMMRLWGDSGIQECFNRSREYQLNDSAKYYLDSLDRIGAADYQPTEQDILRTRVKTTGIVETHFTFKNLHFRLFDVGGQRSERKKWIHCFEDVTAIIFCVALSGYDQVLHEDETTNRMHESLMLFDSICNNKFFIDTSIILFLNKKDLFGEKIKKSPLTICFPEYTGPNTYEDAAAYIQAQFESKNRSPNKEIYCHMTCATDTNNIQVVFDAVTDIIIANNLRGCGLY

Target: Guanine nucleotide-binding protein G(o) subunit alpha (Homo sapiens) (UniProt P09471)
Experiment: RGS7-Galphao binding modulators, primary screen, biochemical, multiplexed bead flow cytometry (AID 1439);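 note: fluorescent Galphao held in activated GDP-AlF4 state binding bead-coupled RGS7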
Conditions: at 10 µM, actives lie on both sides

| SMILES | binding response (% of control) |
| --- | --- |
| CCOC(=O)c1cn2nc(Oc3ccc(C)cc3)ccc2n1 | inconclusive: 91.5% |
| COC(=O)c1sccc1-n1cccc1C(=O)C(=O)N1CCOCC1 | inactive: 97.1% |
| CC(=O)NC1(C(=O)O)CCCC1 | inconclusive: 88.4% |
| CCCCN1C(=O)C(=O)NC[C@@H]1C(C)O (stereo partly drawn) | inconclusive: 124% |
| COc1ccc(C)cc1S(=O)(=O)Nc1ccc2c(c1)OCO2 | inactive: 95.7% |
| O=C(CSc1nc2ccccc2c(=O)n1CCCN1CCOCC1)N1CCN(c2ccccc2)CC1 | inactive: 103% |
| C/C(=N/NC(=O)c1ccccn1)c1c[nH]c2ccccc12 | inconclusive: -129% |
| O=C(Nc1ccc(Cl)c(-c2nc3ccccc3[nH]2)c1)c1ccc2c(c1)OCO2 | inactive: 103% |
| O=C(COC(=O)c1cnccn1)c1ccc([N+](=O)[O-])cc1 | inconclusive: 67.9% |
| Cn1ccnc1C1CCCCN1C(=O)c1cc(COc2ccc(F)cc2F)on1 (stereo not drawn) | inconclusive: 119% |
| CCOc1ccccc1Nc1nnc(SCC(=O)Nc2ccc3[nH]c(=O)[nH]c3c2)s1 | inconclusive: 85.6% |
| Cc1cc(C[n+]2ncsc2N)c2ncccc2c1 | inconclusive: 90.3% |
| CN(C)C(=O)CSc1n[nH]c(-c2ccco2)n1 | inactive: 107% |
| Cc1[nH]n(-c2ccccc2)c(=S)c1C=Nc1ccc([N+](=O)[O-])cc1 | inactive: 116% |
| CN(C(=O)CC1C(=O)NCCN1CC(c1ccccc1)c1ccccc1)C(C1CC1)C1CC1 (stereo not drawn) | inconclusive: 93.4% |
| O=C1N=C(N2CCOCC2)S/C1=C\c1ccncc1 | inconclusive: 157% |
| COc1ccc(C(=S)N2CCOCC2)cc1OC(=O)c1cc([N+](=O)[O-])c(C)c([N+](=O)[O-])c1 | inactive: 107% |
| COc1cc2c(cc1OC)-c1cc(Nc3ccc(N(C)C)cc3)nc(=O)n1CC2 | inconclusive: 186% |
| O=C(O)CCC(=O)Nc1ccccc1C(=O)N1CCN(c2ccc(Cl)cc2)CC1 | inactive: 95.5% |
| O=[N+]([O-])c1cccc(-c2n[nH]c(=S)n2-c2ccc(Br)cc2)c1 | inconclusive: 114% |
| CC(C)c1ccc(CC(NC(=O)c2ccccc2)C(=O)NCC(=O)O)cc1 (stereo not drawn) | inconclusive: 88.1% |
| O=C(CCOc1ccc(F)cc1)Nc1nccs1 | inconclusive: 31.3% |

| SMILES | binding response (% of control) |
| --- | --- |
| O=C(Nc1ccc(Cc2ccncc2)cc1)c1cccc([N+](=O)[O-])c1 | inactive: 99.3% |
| CCN1CCN(c2cc(C)c3cc(NC(=S)N4CCN(c5ccccc5F)CC4)ccc3n2)CC1 | inconclusive: 112% |
| Cc1cc2cc(CCNC(=O)c3cccs3)c(=O)[nH]c2cc1C | inactive: 99.5% |
| Cc1ccc(NC(=S)N(CCCN2CCC(C)CC2)Cc2ccco2)cc1C | inconclusive: 97.7% |
| COc1ccc(N2C(=O)CCC2=O)c(OC)c1 | inconclusive: 95.3% |
| O=S(=O)(Cc1ccccc1)N=Nc1c(O)[nH]c2ccc(Br)cc12 | inconclusive: 93.7% |
| O=C(NC(=S)N1CCc2ccccc21)c1ccc(Br)o1 | inconclusive: 105% |
| Nc1cc(=O)[nH]c(SCC(=O)Nc2cc(S(=O)(=O)N3CCOCC3)ccc2Cl)n1 | inconclusive: 134% |
| O=C(Nc1cccc(Cl)c1)Nc1csc([N+](=O)[O-])c1 | inconclusive: 23.3% |
| COc1cc(CNC2CCCCC2)c(Br)cc1OC1CCCC1 | inconclusive: 79% |
| Cc1cc(C)cc(NC(=S)N(C)C)c1 | inconclusive: 81.5% |
| CCNC(=S)/N=C(/Nc1ccccc1)Nc1nc(C)cc(C)n1 | inconclusive: 62.6% |
| Cc1cc(C)n2c(SCC(=O)NCc3ccc4c(c3)OCO4)nnc2n1 | inconclusive: 158% |
| COc1ccc(C(=O)COc2ccccc2C(N)=O)cc1 | inconclusive: 96.9% |
| CCc1cc(=O)[nH]c(SCc2ccc(C)cc2)n1 | inconclusive: 89.2% |
| COC(C[C@@H](O)C[C@H](O)[C@@H](C)OCc1ccccc1)OC | inconclusive: 107% |
| CSCCC(NS(=O)(=O)/C=C/c1ccccc1)C(=O)NCCc1ccc(S(N)(=O)=O)cc1 (stereo not drawn) | inconclusive: 135% |
| O=C(CSc1nc2ccc([N+](=O)[O-])cc2s1)c1ccc2ccccc2c1 | inconclusive: 206% |
| CC(C)c1onc(C(=O)NCCc2ccccc2)c1[N+](=O)[O-] | inactive: 93.8% |
| CN(C)NC(=O)C12CCC(C)(C(=O)O1)C2(C)C (stereo not drawn) | inactive: 96.8% |
| S=c1[nH]nc(-c2ccncc2)n1/N=C/c1cn(-c2ccccc2)nc1-c1ccc(Cl)cc1 | inconclusive: 76.8% |
| Cc1cnc(NC(=O)c2cncc(Br)c2)s1 | inactive: 98% |

Rewritten tab-delimited: two of the compounds above
SMILES	binding response (% of control)
COc1cc(CNC2CCCCC2)c(Br)cc1OC1CCCC1	inconclusive: 79%
CCc1cc(=O)[nH]c(SCc2ccc(C)cc2)n1	inconclusive: 89.2%

(further entries)

| SMILES | binding response (% of control) |
| --- | --- |
| C/C=C/C=C\C(=O)Nc1cccc(C2=NOC3(C2)C[C@@H](C(N)=O)N(C(=O)c2cc([N+](=O)[O-])cc([N+](=O)[O-])c2)C3)c1 (stereo partly drawn) | inconclusive: 84.8% |
| COc1ccc(CCN=C(N)C(C)c2ccccc2)cc1OC (stereo not drawn) | inconclusive: 98.2% |
| O=[N+]([O-])c1ccc(Nc2nc(NC3CCCCC3)nc(N3CCCC3)n2)cc1 | active: 160% [activator] |
| COCCNS(=O)(=O)c1ccc(C2CNC(=O)C2)cc1 (stereo not drawn) | inactive: 102% |
| N#C/C(=C\c1c(Cl)cccc1Cl)c1nn(-c2ccccc2)c(-n2cccc2)c1C#N | inconclusive: 115% |
| O=C(CCCC(=O)N/N=C/c1ccccc1C(=O)O)N/N=C/c1ccccc1C(=O)O | inconclusive: 81.7% |
| CCCCC(=O)NC(=S)NNC(=O)c1ccc(Cl)cc1Cl | inconclusive: 74.2% |
| O=C(c1cnn2c(C(F)F)cc(-c3ccccc3)nc12)N1CCCCC1c1cccnc1 (stereo not drawn) | inconclusive: 98.7% |
| CC(C)(C)OC(=O)[C@H](Cc1ccccc1)NC(=O)c1nc[nH]c1C(=O)NC1CCN(C(=O)OC(C)(C)C)CC1 | inactive: 108% |
| CCn1c(=O)n(CC(=O)NC2CCCC(C)C2C)c(=O)c2ccccc21 (stereo not drawn) | active: 198% [activator] |
| Cc1occc1C(=O)N/N=C/c1ccc2c(c1)OCO2 | inconclusive: 87.7% |
| COc1ccccc1Nc1nc(Cl)nc(NC(C)(C)C)n1 | inconclusive: 95.4% |
| COc1ccccc1-c1cc(C(=O)NCc2ccc(F)cc2)no1 | inactive: 95.7% |
| CC(C)NC(=O)c1onc(CSc2ccccn2)c1C(=O)NC(C)C | inconclusive: 107% |
| COc1ccc(N=Cc2c(O)n(-c3cccc(C)n3)c(=O)c3ccccc23)c(OC)c1 | inconclusive: 119% |
| O=C(Cc1cccc2ccccc12)N/N=C/c1ccc(F)cc1 | inactive: 99.2% |
| COc1ccc(C2=NN(C(=O)c3ccccc3)C(c3cccc([N+](=O)[O-])c3)C2)cc1 (stereo not drawn) | inconclusive: 106% |
| C[C@@H]1NC(=O)c2cc([N+](=O)[O-])cc(I)c2NCCCC[C@@H](C(N)=O)NC(=O)[C@H](CC(N)=O)NC1=O | inactive: 106% |
| COc1ccc(C(=O)Nc2nc3ccc(S(C)(=O)=O)cc3s2)cc1OC | inconclusive: 91.3% |
| COc1ccccc1CNC(=O)C1CC2Cn3c(nc4ccccc43)C2N1C (stereo not drawn) | inconclusive: 120% |
| COc1ccc(CCNC(=O)CCNS(=O)(=O)c2cccc(Cl)c2)cc1OC | inconclusive: 107% |
| N#Cc1cccc(C#N)c1Oc1ccc(S(=O)(=O)Nc2ccccc2)cc1 | inconclusive: 110% |

| SMILES | binding response (% of control) |
| --- | --- |
| CCn1cc(C(=O)O)c(=O)c2cc(F)c(N3CCN(C(=S)NC(=O)c4ccc(F)c(F)c4)CC3)cc21 | inactive: 96.4% |
| CC(C)C1Cc2c(sc3c2c(=O)n(-c2ccccc2)c2n[nH]c(=S)n32)CO1 (stereo not drawn) | inconclusive: 99.4% |
| CC(=O)N(C(C)=O)c1nc(-c2ccccc2)cn1/N=C/c1cccc([N+](=O)[O-])c1 | inconclusive: 106% |
| N#CN(Cc1ccccc1)Cc1ccccc1 | inconclusive: 111% |
| O=C(NCCc1ccc(Cl)cc1)c1cc(-c2ccncc2)nc2ccccc12 | inconclusive: 104% |
| CC(C)OP(=O)(c1ccc(N(C)C)cc1)C(O)c1cccnc1 (stereo not drawn) | inconclusive: 93% |
| COCCNCC(=O)Nc1nc(C)cs1 | inconclusive: 93.4% |
| c1cncc(-c2nc3ccccc3s2)c1 | inconclusive: 97.1% |
| Cc1ccc(C(=O)NCCOc2cccc3cccnc23)cc1Cl | inconclusive: 125% |
| Cc1cc(C(=O)CCl)c(C)n1-c1cccc(S(=O)(=O)N2CCOCC2)c1 | inactive: 107% |
| O=C(CCCCCN1C(=O)c2cccc3cccc(c23)C1=O)NCCO | inactive: 111% |
| COC(=O)CCC(=O)OC1(C)C(=O)C=C2C=C(C3CC3)N(Cc3ccc4c(c3)OCO4)C=C2C1=O (stereo not drawn) | inconclusive: 93.4% |
| Nn1c(SCc2ccc(F)cc2)nnc1-c1ccncc1 | inconclusive: 66.4% |
| COc1ccc(C2C3=C(CC(C)(C)CC3=O)Nc3nc(C)nn32)cc1OC (stereo not drawn) | inconclusive: 37.6% |
| O=C(O)Cn1c(=O)cnc2ccccc21 | inactive: 103% |
| COc1cc2c(cc1Cl)C(=O)C(F)(c1ccccc1)C(=O)N2 (stereo not drawn) | inconclusive: 85.2% |
| CCN(C(=O)Cn1nc(C(=O)O)c2ccccc2c1=O)C1CCCCC1 | inconclusive: 110% |
| CCC(=O)OCC(=O)Nc1ncc(C(F)(F)F)cc1Cl | inconclusive: 51.1% |
| O=C(COC(=O)/C=C/c1ccco1)Nc1ccccc1 | inconclusive: 96% |
| Cc1cc([N+](=O)[O-])cc(/C=N/n2c(C)nc3ccccc3c2=O)c1O | inconclusive: 118% |
| O=[N+]([O-])c1ncn(Cc2c(Cl)cccc2Cl)n1 | inactive: 98.7% |
| COc1ccc(C2CC(c3ccc4ccccc4c3)=NN2C(=O)COC(=O)C2CCC(=O)N2)cc1 (stereo not drawn) | inconclusive: 97.7% |

Reprinted from above (2 entries):

| SMILES | binding response (% of control) |
| --- | --- |
| O=C(O)Cn1c(=O)cnc2ccccc21 | inactive: 103% |
| COc1cc2c(cc1Cl)C(=O)C(F)(c1ccccc1)C(=O)N2 (stereo not drawn) | inconclusive: 85.2% |
